From PubChem BioAssay AID493014 (National Center for Advancing Translational Sciences (NCATS), 2011)
Hit rate of the full screen: of about 340,000 compounds, about 170 (0.05%) were called active. Inconclusive means that the source gave no clear call. Such entries were picked first, then a sample of the others. The call rests on the fitted dose curve; in most records, active means well fitted inhibition curve with a large enough effect in the signal ratio, with a control signal flat (not every such curve was filed as active); inconclusive means small, poorly fitted or top-dose-only effect, or effect the other way, or a change in a side signal; inactive means flat fitted curve, though single readings scatter; the % refers to the signal ratio. A potency beside an inconclusive call is a rough fit, not a confirmed value.

Experiment: qHTS Assay to Find Inhibitors of Chronic Active B-Cell Receptor Signaling;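 on activity change, negative = inhibition: plate controls were basal doxycycline-induced cells for no effect and cells given 10 µM MG132 for full effect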
Settings: ABC-DLBCL IkBa-CBG/CBR reporter, luminescence ratio (green luciferase fused to IkBa over red control in TMD8 lymphoma cells), 4 h; activity change, negative = inhibition: at 46.1 µM (top of the series)
Procedure, shortened: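 Doxycycline induced both beetle luciferases in TMD8 lymphoma cells; IKK-driven degradation limits the IkappaBalpha-fused green signal, while red luminescence normalises for cell number and nonspecific effects. Compounds tested up to 46 uM, 4 hrs.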
Potency means the concentration at half of the fitted maximal effect.

Compound	activity change, negative = inhibition	Potency
COc1ccccc1CNS(=O)(=O)c1c(C)nc2sccn2c1=O	inconclusive: 1.55%	
CCCCC(=O)Nc1ncc([N+](=O)[O-])s1	inconclusive: -8.08%	
O=C1C=C(N(CCO)Cc2ccccc2)c2ccccc2C1=O	inconclusive: -0.975%	
CC(=O)N1c2ccc(S(=O)(=O)N3CCC(C(=O)NCc4ccc(Cl)cc4)CC3)cc2CC1C (stereo not drawn)	inactive: 17.4%	
O=C(Nc1ccccc1)c1nc[nH]c1C(=O)N1CCN(c2ccccc2)CC1	inactive: -6.02%	
Cc1cc(-c2nnc(SCC(=O)Nc3ccccc3C)n2N)n[nH]1	inactive: -0.464%	
CCc1cc(=O)oc2c(CN3CCN(C)CC3)c(O)c(Cl)cc12	inconclusive: 0.183%	
CC(=O)Nc1ccc(C(=O)OCCC(C)C)cc1	inconclusive: -15.9%	
O=[N+]([O-])c1ccc(COc2ccc(-c3[nH]ncc3-c3ccccc3)c(O)c2)cc1	inconclusive: 4.03%	
O=C1NC[C@@H](Cc2cccc3ccccc23)N(CC2CCCCC2)C1=O	inconclusive: -0.735%	
COCCN1C(=O)N(c2cccc(OC)c2)C(=O)C1CC(=O)Nc1ccc(Cl)cc1 (stereo not drawn)	inconclusive: 1.78%	
COC(=O)c1ccc(CN(c2ccccc2OC)S(=O)(=O)c2cccs2)o1	inconclusive: 17.8%	
O=C(Nc1cccc2cccc(NC(=O)c3ccco3)c12)c1ccco1	inconclusive: 2.05%	
Cc1cccc(NC(=S)NC2CC3CCC(C2)N3Cc2ccco2)c1C (stereo not drawn)	inactive: -8.13%	
Cc1ccc(/C=C2\SC(=O)N(CCC(=O)N3CCN(C)CC3)C2=O)cc1		inconclusive: 17.8 µM [falling, partial curve]
CC(=O)Oc1ccc(Cl)cc1/C=C/c1ccc2ccccc2n1		inconclusive: 18.4 µM [falling, partial curve]
Cc1ccc(S(=O)(=O)Nc2c(C)n(C)n(-c3ccccc3)c2=O)cc1	inconclusive: -0.392%	
O=C1NCCN/C1=C\C(=O)c1ccc(Br)cc1		inconclusive: 22.4 µM [falling, single point]
Nc1nc(Br)c2c(F)cccc2c1-c1ccccc1	inconclusive: 3.09%	
COc1ccc(COC(=O)C2=C(C)NC(=O)NC2c2ccc(F)cc2)cc1 (stereo not drawn)		inconclusive: 12.6 µM [falling, partial curve, poor fit]
CNC(=O)C1=NCCCc2cc(OC)c(OC)cc21	inconclusive: 13.9%	
Cc1cc(C(=O)Nc2nc(C)c(C(=O)N(C)C)s2)ccc1[N+](=O)[O-]	inconclusive: 5.26%	
CCOC(=O)c1c(NC(=O)/C=C/C(=O)O)sc(C)c1-c1ccc(F)cc1	inconclusive: 19.3%	

Part of the list above, as a markdown table.

| Compound | activity change, negative = inhibition | Potency |
| --- | --- | --- |
| O=C1NC[C@@H](Cc2cccc3ccccc23)N(CC2CCCCC2)C1=O | inconclusive: -0.735% |  |
| COCCN1C(=O)N(c2cccc(OC)c2)C(=O)C1CC(=O)Nc1ccc(Cl)cc1 (stereo not drawn) | inconclusive: 1.78% |  |
| COC(=O)c1ccc(CN(c2ccccc2OC)S(=O)(=O)c2cccs2)o1 | inconclusive: 17.8% |  |
| O=C(Nc1cccc2cccc(NC(=O)c3ccco3)c12)c1ccco1 | inconclusive: 2.05% |  |
| Cc1cccc(NC(=S)NC2CC3CCC(C2)N3Cc2ccco2)c1C (stereo not drawn) | inactive: -8.13% |  |
